Our source for the binding values is US20160000930A1 (University of Texas, published 2016).

The target of assay [1] is recombinant bacterially-purified mouse ΔDCN (His6-tagged, amino acids 45-354 of mouse DCN) (mouse). The experiment in a line: ELISA, OD450 against FLAG-tagged protein concentration (FIG. 6D).
For assay [2] the target is unchanged. As to the kind of experiment: ELISA, ΔDCN coated, FLAG-resistin detected with anti-FLAG (FIG. 6D).

These are yes or no findings as the source states them, for the method shown. Binding can be weak; no strength is given. Where a sequence is shown, tags or fusion partners need not be part of it.

B1: FLAG-tagged mouse resistin produced in HEK293 cells (Enzo Life Sciences) (ligand, UniProt Q99P87 21-114, looked up)
chain: SSMPLCPIDEAIDKKIKQDFNSLFPNAIKNIGLNCWTVSSRGKLASCPEGTAVLSCSCGSACGSWDIREEKVCHCQCARIDWTAARCCKLQVAS
notes: Bought protein; also called FLAG-resistin; ADSF; not shown: FLAG tag
For the molecule B1, the binding result in assay [1] and in assay [2] was “binds” in each case.
